The values below come from article PMC8012331, “Drug-induced hepatic steatosis in absence of severe mitochondrial dysfunction in HepaRG cells: proof of multiple mechanism-based toxicity” (Cell Biology and Toxicology, 2020).

Several values for one entry are separate records, joined by “and”; a condition that tells them apart may be missing. Equal values may be shown once. Entries after “also recorded” stand apart in the source; their conditions may differ.

The test system of data set [1] is primary human hepatocytes (PHH). Briefly: Neutral lipids with Nile red in primary human hepatocytes. The data set is classed as cell-based. To be noted: 4 days. As for the experimental part:
Primary human hepatocytes (PHH) were purchased from Biopredic International (Saint-Grégoire, France). Cells were seeded by the supplier in coated 96-well plates at a density of 5 × 10^4 cells/well. Upon receipt, culture medium was removed and replaced by William’s E medium supplemented as previously described for HepaRG cell differentiation, except for DMSO set at 1%. After 2–3 days, cells were treated as for HepaRG cells. For HepaRG cells and PHH, cells were always maintained in incubators at 37 °C with 5% CO2 and saturating humidity.
Cells were then incubated with PBS containing 0.1 μg/mL Nile red for 30 min and washed once. […] For each well, four pictures were taken at a magnification of × 20 and analyzed with Columbus software (PerkinElmer) for quantification. These pictures were always taken in four different areas around the center of each well, and these areas were the same from one well to another, as programmed by the Columbus software. This software was also designed to count only living cells after exclusion of dying cells harboring nuclei with abnormal shape or altered Hoechst intensity. […] Neutral lipids were then normalized per number of nuclei and expressed relative to control cells. Examples of images used for neutral lipid quantification are shown in Supplementary Fig. 2.

Data set [2] concerns mitochondrial fatty acid oxidation (mtFAO). Briefly: mtFAO with [U-14C]palmitic acid in HepaRG cells. The data set is classed as cell-based, human. As to conditions: 4 days, vs control. As for the experimental part: Experiments were carried out on passages 9 to 16. […] DPEN was dissolved in water.
mtFAO was assessed by measuring the acid-soluble radiolabeled metabolites resulting from the mitochondrial oxidation of [U-^14C]palmitic acid as previously described (Anthérieu et al. [2011]), with slight modifications. Briefly, culture medium was removed and cells were washed with warm PBS before addition of phenol red-free William’s E medium containing 1% fatty acid-free BSA, [U-^14C]palmitic acid (185 Bq per well, corresponding to 0.5 pM), 100 μM cold palmitic acid, 1 mM L-carnitine, and 1% DMSO. After 3 h of incubation at 37 °C, perchloric acid (final concentration, 6%) was added and plates were centrifuged at 2000×g for 10 min, and supernatant was counted for [^14C]-labeled acid-soluble β-oxidation products using a Tri-Carb 4910TR liquid scintillation counter (PerkinElmer). Results were normalized to total protein content determined using the Pierce BCA assay kit from Thermo Fischer Scientific (Waltham, MA). Results were expressed in comparison to control cells.

Another data set has as its system HepaRG cells. Briefly: Cellular ATP level (CellTiter-Glo) in HepaRG cells. As to conditions: 4 days, vs controls. The class given is cell-based, human. As for the experimental part: Cellular ATP level was measured using the CellTiter-Glo® Luminescent Cell Viability assay purchased from Promega (Charbonnières, France), according to the manufacturer’s instructions. Briefly, control and treated HepaRG cells were first washed with warm PBS and kept for 30 min at room temperature in phenol red-free William’s E medium. Cells were next incubated with the CellTiter-Glo® reagent for 10 min at room temperature. Cells were then transferred in opaque-walled multiwell plates and the luminescent signal was quantified using a POLARstar Omega microplate reader (BMG Labtech, Ortenberg, Germany). Results were expressed in comparison to control cells.
On the technique in general: In ATP-based viability assays light output follows the ATP content of the culture.

Data set [3] has as its system fatty acid synthase (FASN). Briefly: RT-qPCR FASN mRNA in HepaRG cells. The class given is cell-based, human. As to conditions: 4 days, vs control. Here is the method: (§1) Total RNA was extracted with the Nucleospin RNA isolation system purchased from Macherey-Nagel (Düren, Germany), which included a DNase treatment step. Quantification of isolated RNAs was assessed using a Nanodrop 1000 (Thermo Fisher Scientific, Waltham, MA). RNAs were reverse-transcribed into cDNAs using the High-Capacity cDNA Reverse Transcription Kit purchased from Applied Biosystems (Woolston, UK). Gene expression was assessed by real-time quantitative PCR analysis (RT-qPCR) using SYBR Green PCR Master Mix (Applied Biosystems) and a 384-well QuantStudio™ 7 Flex Real-Time PCR System (Thermo Fisher Scientific). Sequences of the primers used to measure gene expression are presented in Supplementary Table 3. Expression of GAPDH was chosen as reference and the 2^−ΔΔCt calculation method was used to express the relative expression of each selected gene.
(In general: Quantitative PCR measures a nucleic acid by following its amplification.)

For data set [4], the system named is fatty acid translocase (FAT, also known as CD36). Briefly: RT-qPCR FAT/CD36 mRNA in HepaRG cells. As to conditions: 4 days, vs control. The class given is cell-based, human. Here is the method: as §1
The conditions of data set [5]: treated patients; ref Schulz M et al., Crit Care 2012 ;16(4):R136; listed as Amiodarone (AMIO); cited from earlier work.
The conditions of data set [6]: cited from earlier work.
A short description of data set [7]: Maximum plasma concentration (Cmax) in patients. As to conditions: worked out from cited Cmax in patients.

Consider `CCCCc1oc2ccccc2c1C(=O)c1cc(I)c(OCCN(CC)CC)c(I)c1` [AMIO, amiodarone], for which the “Steatosis in PHH batches (six batches tested)” value in data set [1] was “induce steatosis in the six different PHH batches”. The “Effect on mtFAO” value in data set [2] is “inhibited this metabolic pathway; also recorded: moderate”. For the same compound, the “Loss of cellular ATP relative to the maximum concentration selected for the study” value in the data set with HepaRG cells is on record as 25 µM (profound loss of cellular ATP for higher concentrations, as shown in Supp. fig 1). Besides, the “FASN mRNA level” value in data set [3] was “tended to increase mRNA level”. Besides, the “FAT/CD36 mRNA level” value in data set [4] was “significantly augmented”. For the same compound, in data set [5], the “Therapeutic blood (or plasma) concentration in patients” value is 1 - 2 mg/L and 1.6 - 3.1 µM. Moreover, the Cmax in data set [6] (read-out: Maximum plasma concentration (Cmax) in patients, ref given per drug) is ≤ 2.9 µM. The “Maximum plasma concentration (Cmax) in patients” value in data set [6] (ref given per drug) was ≤ 1870 ng/mL. Further, the “Concentration corresponding to 100xCmax” value in data set [7] was found to be 290 µM.
